These are yes or no findings as the source states them, for the method shown. Binding seen in cells or lysates may run through a third protein. Some entries that bind do so weakly or less than the wild type. Sequences can lack the tags named with a protein.

The chains behind the UniProt entries cited, without tags or fusion partners.
UniProt Q96S21, whole entry: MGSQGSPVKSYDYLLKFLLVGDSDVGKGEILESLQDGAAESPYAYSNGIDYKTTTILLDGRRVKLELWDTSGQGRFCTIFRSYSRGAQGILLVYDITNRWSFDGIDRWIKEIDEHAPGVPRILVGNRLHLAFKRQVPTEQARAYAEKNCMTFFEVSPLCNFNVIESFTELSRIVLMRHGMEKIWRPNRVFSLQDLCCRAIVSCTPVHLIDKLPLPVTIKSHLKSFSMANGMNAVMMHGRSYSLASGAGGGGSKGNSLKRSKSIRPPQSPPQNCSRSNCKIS

In test [1] the target is T1, FLAG-ANKRD28 (human) (UniProt O15084).
T1 sequence: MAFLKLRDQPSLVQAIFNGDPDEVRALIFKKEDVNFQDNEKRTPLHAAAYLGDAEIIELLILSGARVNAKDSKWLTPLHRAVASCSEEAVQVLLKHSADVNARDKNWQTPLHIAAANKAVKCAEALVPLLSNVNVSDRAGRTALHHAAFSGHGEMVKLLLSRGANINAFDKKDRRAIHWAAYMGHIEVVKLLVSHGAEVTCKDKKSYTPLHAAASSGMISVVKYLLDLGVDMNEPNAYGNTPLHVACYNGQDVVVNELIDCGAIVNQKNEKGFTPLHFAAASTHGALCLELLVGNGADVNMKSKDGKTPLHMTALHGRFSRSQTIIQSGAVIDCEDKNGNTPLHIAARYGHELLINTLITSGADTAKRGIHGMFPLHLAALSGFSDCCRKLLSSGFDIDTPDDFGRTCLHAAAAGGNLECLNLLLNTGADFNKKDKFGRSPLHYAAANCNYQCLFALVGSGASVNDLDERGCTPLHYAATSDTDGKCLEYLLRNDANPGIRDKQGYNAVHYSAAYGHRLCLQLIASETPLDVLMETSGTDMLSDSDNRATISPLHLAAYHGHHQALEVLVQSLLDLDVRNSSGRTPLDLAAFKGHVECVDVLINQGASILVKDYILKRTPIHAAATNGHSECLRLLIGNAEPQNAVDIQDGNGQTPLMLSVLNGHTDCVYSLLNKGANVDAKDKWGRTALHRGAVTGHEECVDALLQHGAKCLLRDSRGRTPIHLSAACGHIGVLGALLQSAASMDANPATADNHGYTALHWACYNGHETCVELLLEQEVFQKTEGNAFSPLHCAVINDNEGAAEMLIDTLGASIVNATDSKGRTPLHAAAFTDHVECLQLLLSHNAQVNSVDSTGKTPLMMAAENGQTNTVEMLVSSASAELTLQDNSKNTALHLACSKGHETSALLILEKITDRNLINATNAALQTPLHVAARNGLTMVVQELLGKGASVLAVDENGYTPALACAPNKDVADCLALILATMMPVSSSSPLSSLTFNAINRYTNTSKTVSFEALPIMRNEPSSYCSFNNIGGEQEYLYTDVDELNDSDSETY
The test can be described thus: co-IP.

The target of test [2] is T2, FLAG-ANKRD44 (human) (UniProt Q8N8A2).
T2 sequence: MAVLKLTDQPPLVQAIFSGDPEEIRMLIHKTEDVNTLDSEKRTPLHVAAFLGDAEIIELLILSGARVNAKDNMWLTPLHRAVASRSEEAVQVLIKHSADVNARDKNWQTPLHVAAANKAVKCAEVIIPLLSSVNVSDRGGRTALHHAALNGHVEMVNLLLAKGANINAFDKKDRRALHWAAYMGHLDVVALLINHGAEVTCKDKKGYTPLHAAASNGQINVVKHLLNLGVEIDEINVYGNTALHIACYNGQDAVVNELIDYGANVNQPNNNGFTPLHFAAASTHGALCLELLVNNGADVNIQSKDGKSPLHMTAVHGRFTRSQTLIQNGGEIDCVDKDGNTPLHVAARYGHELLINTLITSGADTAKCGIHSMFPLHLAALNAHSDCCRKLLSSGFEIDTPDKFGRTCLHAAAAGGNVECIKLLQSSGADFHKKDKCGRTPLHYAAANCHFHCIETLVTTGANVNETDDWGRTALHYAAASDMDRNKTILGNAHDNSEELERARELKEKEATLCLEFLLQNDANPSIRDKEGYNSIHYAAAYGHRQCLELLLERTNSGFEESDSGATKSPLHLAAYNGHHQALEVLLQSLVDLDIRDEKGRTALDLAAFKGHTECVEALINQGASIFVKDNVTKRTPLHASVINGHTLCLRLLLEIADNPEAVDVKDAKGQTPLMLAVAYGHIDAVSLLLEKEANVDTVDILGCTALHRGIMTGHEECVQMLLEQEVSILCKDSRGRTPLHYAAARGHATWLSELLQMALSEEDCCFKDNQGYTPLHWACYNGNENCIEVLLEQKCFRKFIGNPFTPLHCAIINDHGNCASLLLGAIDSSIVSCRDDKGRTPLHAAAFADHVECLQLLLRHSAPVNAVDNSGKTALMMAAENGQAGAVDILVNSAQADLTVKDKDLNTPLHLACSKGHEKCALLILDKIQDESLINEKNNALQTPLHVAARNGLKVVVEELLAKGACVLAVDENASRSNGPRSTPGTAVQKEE
The test can be described thus: co-IP.

For the substance HA-Rab40c (from UniProt Q96S21 1-281), the binding entry in test [1] and in test [2] was “binds” in each case.

For the origin of these results see doi:10.1101/2021.12.06.471409.
